For 104 sequences, z-score results are on record in PubChem BioAssay AID1347423 (Functional Genomics Laboratory (NCATS/FGL), 2020).

About 210 (0.4%) of roughly 52,000 sequences were called active.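 The calls were made as follows: active = gene whose silencing raises cell survival under the drug, median off-target-corrected z-score across its silencing RNAs 2 or more; inactive = the rest.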 Some of the results follow.

The test in a line: Resistance to Poly (ADP-Ribose) Polymerase inhibitor: Gene Identification via Genome-wide siRNA Screen. As to conditions: mouse BRCA2 R2336H ES cells, olaparib, CellTiter-Glo viability; active compounds read high. In short, it runs like this:
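Genome-wide siRNA screen (3 siRNAs/gene, 20 nM) in mouse ES cells carrying hypomorphic BRCA2 R2336H; olaparib 500 nM added 48 h post-transfection, CellTiter-Glo viability 72 h later. Normalized to plate-median negative control; MAD z-scores, gene median, seed-adjusted.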
For the sequence “CCAGACAGAUGGAUACCAATT against 5830472M02Rik”, the z-score was inactive: -0.355. In the case of GGAUCUUGGUUACCCUAGUTT against Casp9 it was inactive: -1.98. In the case of “GGUAGAAAAUGUUUACCCUTT against C330018K18Rik” it was inactive: -0.2. In the case of GCCCAAUCUACACAGACCATT against Slc7a13 it was inactive: 0.273. GGAUAUCGUUUUCCUUGUATT against Retn: the z-score is inactive: -0.699. Take “GCCAUUUGAAGGCUUUUGUTT against D130079A08Rik”: the z-score is inactive: -0.234.

Take GGAGAAAAUUGAACUGAAATT against Cacna1c: the z-score was inactive: -0.874.

As for “GGAGAUUUUCCAGAGGCUGTT against 1300006C06Rik”, the z-score was inactive: -0.606. In the case of GCUAGUUUCCGUCGCUUUGTT against Cpeb4 it was inactive: 0.221.

In the case of GGAGAAAGUGUAGUGUUUATT against Siglec5, the z-score was inactive: 0.179. The same measure for “GCACACAAAACAUCUAACCTT against A430091O22Rik”: inactive: 0.0809.

As for GCCGGCAUCAGCUGAUUUCTT against Igbp1, the z-score was inactive: -0.311. In the case of GGAUCAGUCAUUUCUCUGCTT against Aox3 it was inactive: 0.745; in that of CGGUAGAGUGCUUACGCAATT against Camk2g, inactive: 0.494; in that of GGCCUGGAGCUUUUAUAUUTT against LOC382686, inactive: 0.341. In the case of GGACAGUUCGUGUUUGGUUTT against Wdfy2 it was inactive: -1.48; in that of GGAGGAAGAGGAGUAAAGGTT against Hoxa7, inactive: -0.0638. Take “GGUAACUGUUACACAAAUCTT against 2810446P07Rik”: the z-score is inactive: 0.131. The same measure for CCUAAACAGGUUGAUAGGCTT against Tuba1: inactive: 0.469; for GCUUACUUCCAAGGUCUACTT against Ptch2: inactive: -0.637; for GCGGAGGUUUCCUCCUUAATT against Fem1c: inactive: -1.56. In the case of GGCAAGGAAUCAAUGUCUCTT against Fscn2 it was inactive: 0.337; in that of GGGUUUCUGACCCUUGGUUTT against V1rh12, inactive: -0.0653; in that of CGGAACCUUAUUUAAAACUTT against Sirt5, inactive: 0.393. GGGAAAGAAAGUGAUUGUCTT against Hsd11b1: the z-score was inactive: 2.23. The same measure for GGCUAGCAAAUCCUACUGGTT against Mpl: inactive: -1.27. In the case of GGUGUUCCCGGUUGAAUAATT against Sepw1 it was inactive: -2.83. The same measure for GGAAGAAAAACAACCAAGUTT against Elovl4: inactive: -0.665; for GGAAAUAUUUUCUCAGCAATT against Pcdhga1: inactive: 1.47; for CCGUGAUGGUAACAAAUCATT against Phyhipl: inactive: 0.093.

For the sequence GGAGGAGAACCCAUGUAACTT against Tcl1b1, the z-score is inactive: -0.0286. The same measure for “GCCUGAUUAUUUGUAAUUGTT against 4632404H12Rik”: inactive: -0.694; for GGAAUUCUUCCCAUCUGUATT against AI451006: inactive: -0.363. CCGUGUGACAUUUGAGUAUTT against Crhbp: the z-score is inactive: -0.419.

With “GCUUCCAUAGGUUUAACUUTT against 4921525D22Rik”, the z-score is inactive: 0.741. For GGCCAUCAGAAGCAAGAUUTT against Akr1c21, the z-score was inactive: 0.0777. In the case of GGAAUCGGAACCAGUUCCCTT against Smyd5 it was inactive: -0.308. As to AAUGCUAAUUACCAUGACATT against Lphn3, the z-score was inactive: 0.151.

For GCGGCAUGGACUUAGUAAATT against Fbxo5, the z-score was inactive: -1.8. In the case of GGAUCUAUGGACGACCUUCTT against Kcnj10 it was inactive: -0.661. Regarding GCUAGUUAAGAAGCAACAATT against Rpl12, the z-score is inactive: -3.33.

GGACUUGACCCUGUCUUUGTT against Ostm1: the z-score was inactive: -1.2. The same measure for CCGCUCAGUUCAUCUCAAATT against Snx15: inactive: 1.05; for GGAAAUGUAUCGCUUGAAUTT against Dna2l: inactive: -0.496; for GGACAUGGAUCAAAGUUCATT against Zfp40: inactive: 0.376. As to GAAAAAAUCUAUCUACCCUTT against Hoxb4, the z-score was inactive: -0.234. In the case of GCCUAUGGGAUUCGAAUUGTT against P2rx2 it was inactive: 0.288; in that of CCAAGCUUGACCCUACACUTT against Olfr1121, inactive: -0.249.

Turning to “GCCACCAGUGAAUAAUACATT against 4932701A20Rik”, the z-score is inactive: -1.94.

As to GACACAGCAUCUUCAUGGATT against V1ra6, the z-score is inactive: 1.68. The same measure for GGGACAAGCCAGAAACAACTT against Col19a1: inactive: 0.225; for GGGUAAUCAGAUUGAAAGATT against Dnahc5: inactive: 0.251; for GGCUGAACUGGGAAAGCAATT against Krtap16-4: inactive: -1.89. In the case of GGGUUGUGCAAAUUGGGCUTT against Olfr570 it was inactive: -0.616.

In the case of GCGGUACCUUCACUUGCAUTT against Lrfn1, the z-score is inactive: -2.33. In the case of GGUGCUUUCCAGCUAUCCCTT against BC031140 it was inactive: 0.522; in that of “GGGACUUGCAUUUUAUAUUTT against 4930529M08Rik”, inactive: 0.956.

Regarding CCAGCAGUAAACUGGAAAUTT against Arhgap25, the z-score was inactive: -0.782. Consider GCGGGAAAUCACGAAGAUATT against Wdr31, for which the z-score is inactive: -0.149.

Regarding “CGAGUGAGUCACGUAUCAUTT against 4930544M13Rik”, the z-score was inactive: -0.812. In the case of GCCUAGUGACCCUUUACUATT against Stx1a it was inactive: -0.349. In the case of “CCCUAGGAAAGGGUUUUAGTT against 0610039G24Rik”, the z-score was inactive: 1.2.

For GGAAUUCAAUGACGUGUACTT against Mapk14, the z-score was inactive: 1.24. In the case of GCUUGUGCAAAGAACAUGUTT against Itgad it was inactive: 0.236; in that of GAGGGACUGUAAUGUUGACTT against Olfr560, inactive: 0.0865; in that of GGCUCCUGAAAGAACUGGATT against Arpm2, inactive: -1.32. In the case of GGUCUACUGACUCAAAGUCTT against Mrps33 it was inactive: 0.355. In the case of CCACGUUAUCAGCUAUUACTT against Exoc7 it was inactive: -1.44; in that of GGCUUCAACCGGAGAUUUATT against Pde8b, inactive: 0.987.

As to “CCUACUCAGUGUCUUUCAATT against 9530027K23Rik”, the z-score is inactive: 0.14. In the case of CCCUGAUGUUCUGUUUGAATT against Ube1dc1 it was inactive: 0.236. In the case of GGUCCAAAAAAGGUUCAAATT against Btbd3 it was inactive: 0.36; in that of GGAUGGCAUGUCCUUCCAATT against Elf3, inactive: 0.94. The same measure for GGGCUGAAGAUAAUGCAGATT against Pcna: inactive: -2.81.

For GCAAGGUGACUCGAAGAAATT against Spry1, the z-score was inactive: -1.02. As to GGGACAACUUUGCACAGGATT against Gfap, the z-score was inactive: 0.358.

As to GGAGACCAUCAAGAAGAGCTT against BC013481, the z-score is inactive: 0.0983. As for GGAAACACCAGAGAAGUCCTT against Etf1, the z-score is inactive: -1.28. In the case of GCUGACCACUUCAAGGUUGTT against Lgals3, the z-score was inactive: -0.845. For the sequence GAACGGGUUACCAUGUGGUTT against Gm1620, the z-score is inactive: -0.132. The same measure for GGAAGAAAACAUUUAGCCCTT against Mmd2: inactive: -0.391; for GGAAGUGAUGAUAAGUCUATT against D6Wsu163e: inactive: 0.567; for CCCGUAUGAGAAGUUCUAATT against Pttg1ip: inactive: -0.798.

For GGCAUUGUCCUGUGAUCUCTT against Il10ra, the z-score is inactive: -0.289. As to “CCUCAUUGAGGUAAUGCGGTT against 1110030L07Rik”, the z-score is inactive: 0.202. The same measure for GGAAAAAAAAAUCAGAAGGTT against Trp53bp2: inactive: 0.555; for “GGGCUGCAUUAUUUGAAUUTT against 1110063G11Rik”: inactive: 1.01. In the case of GGGAGAAGAAAAUGACUUUTT against Edaradd it was inactive: -1.63; in that of GGAAAUCGAAUGAAUAACCTT against Klf12, inactive: 0.403; in that of GGUCAUCAAAUACAAAAUGTT against Prlpk, inactive: -0.0665. Consider CCUGUUAGAACAUAAGGGCTT against Thy1, for which the z-score was inactive: 0.28.

As for GGGCUAUUGCAUCUUUUAATT against Olfr711, the z-score is inactive: 0.661. The same measure for GGAAGACAUAGAAGAAAAGTT against Zdhhc12: inactive: -1.45. In the case of “GGUUUAUUGACAAGAAGGATT against D14Ertd436e” it was inactive: 0.344; in that of GCUGGAAGUGAACAUCGAUTT against Gng8, inactive: -1.63. The same measure for GGUAGAAAACUAGCUAAUATT against Slc35e3: inactive: 0.906. As for GCACUACAGACACUUUUAGTT against LOC433384, the z-score was inactive: 1.64. In the case of GCGUGGCUGUCAUGUAUUUTT against Olfr244 it was inactive: -1.73; in that of GGUAAGUCACCAUUAUACCTT against Pcdhb12, inactive: -1.3. For GCCUUUCUUCUGUCAAUGATT against Olfr281, the z-score is inactive: 0.658. The same measure for GGUCAUCAGUCCUGACACUTT against Dia1: inactive: 0.0234; for GCUCCUAGACAACAUCGUGTT against Ppp1r3b: inactive: -0.213. In the case of GGACUGAGGUAUCAUUUACTT against Gtf2f2 it was inactive: -1.35. The same measure for CCGGUUUCAAAUUGCCACUTT against Psmb4: inactive: -2.29.
